Measurements taken from PubChem BioAssay AID1494158 (National Center for Advancing Translational Sciences (NCATS), 2020).
Inconclusive means that the source gave no clear call. Such entries were picked first, then a sample of the others. Where the call is inconclusive, the potency comes from a doubtful curve fit. Calls of active or inactive are those of the source. Calls follow the shape of the full dose curve.

Test: VSV-G qHTS counterscreen for inhibitors of SARS-S pseudo-typed particle cell entry
Conditions: VSV-G pseudotyped particle entry counterscreen, luciferase; series mostly up to 57.1 µM
In the case of `CCN1CCN(Cc2ccc(Nc3ncc(F)c(-c4cc(F)c5nc(C)n(C(C)C)c5c4)n3)nc2)CC1`, the Potency is reported as inconclusive: 10.8 µM [inhibitor, full curve].
In the case of `CCCCCCCCCCCCOCCOCCOCCOCCOCCOCCOCCOCCOCCO`, the Potency is reported as inconclusive: 6.81 µM [inhibitor, partial curve].
In the case of `O=c1[nH]c(=O)n([C@H]2C[C@H](O)[C@@H](CO)O2)cc1C(F)(F)F`, the Potency is reported as inconclusive: 19.2 µM [inhibitor, partial curve].
For `CCCCCCOC(=O)NC(=N)c1ccc(NCc2nc3cc(C(=O)N(CCC(=O)OCC)c4ccccn4)ccc3n2C)cc1`, the Potency was inconclusive: 13.6 µM [inhibitor, full curve, poor fit].
In the case of `CN(C)CC/C=C1\c2ccccc2Sc2ccc(Cl)cc21`, the Potency is reported as inconclusive: 6.81 µM [inhibitor, partial curve].
With `CN(C)CCC=C1c2ccccc2C(C)(C)c2ccccc21` the Potency was inconclusive: 48.2 µM [inhibitor, partial curve, poor fit].
With `O=C(Nc1ccc([N+](=O)[O-])cc1Cl)c1cc(Cl)ccc1O` the Potency was active: 0.482 µM.
With `CC(=O)N1CCN(c2ccc(OC[C@H]3CO[C@](Cn4ccnc4)(c4ccc(Cl)cc4Cl)O3)cc2)CC1` the Potency was active: 19.2 µM.
With `c1ccc2c(c1)Sc1ccccc1N2CC1CN2CCC1CC2` (stereo unspecified) the Potency was inconclusive: 21.5 µM [inhibitor, partial curve].
With `CN1CCC[C@@H]1CCO[C@](C)(c1ccccc1)c1ccc(Cl)cc1` the Potency was inconclusive: 42.9 µM [inhibitor, single point].
With `CCOc1ccc(Cc2nccc3cc(OCC)c(OCC)cc23)cc1OCC` the Potency was inconclusive: 10.8 µM [inhibitor, partial curve, poor fit].
In the case of `CCCCc1oc2ccccc2c1C(=O)c1cc(I)c(OCCN(CC)CC)c(I)c1`, the Potency is reported as inconclusive: 30.4 µM [inhibitor, single point].
With `COc1ccc2cc3[n+](cc2c1OC)CCc1cc2c(cc1-3)OCO2` the Potency was active: 17.1 µM.
For `CC(=O)Oc1ccccc1C(=O)Nc1ncc([N+](=O)[O-])s1`, the Potency was active: 6.81 µM.
With `OCCN1CCN(CC/C=C2/c3ccccc3Sc3ccc(C(F)(F)F)cc32)CC1` the Potency was inconclusive: 3.04 µM [inhibitor, partial curve].
With `CC(C)(C)NC(=O)[C@H]1CC[C@H]2[C@@H]3CC[C@H]4NC(=O)C=C[C@]4(C)[C@H]3CC[C@]12C` the Potency was inconclusive: 27.1 µM [inhibitor, single point].
With `CC(=O)OCC1=C(C(=O)O)N2C(=O)[C@@H](NC(=O)Cc3cccs3)[C@H]2SC1` the Potency was inconclusive: 3.04 µM [inhibitor, partial curve, poor fit].
With `CCCN1C[C@H](C)[C@@H](O)[C@](C)(O)[C@@H](CC)OC(=O)[C@H](C)[C@@H](O[C@H]2C[C@@](C)(OC)[C@@H](O)[C@H](C)O2)C(C)[C@@H](O[C@@H]2O[C@H](C)C[C@H](N(C)C)[C@H]2O)[C@](C)(O)C[C@H]1C` (stereo partly specified) the Potency was “inactive”.
With `CN(C/C=C/c1ccccc1)Cc1cccc2ccccc12` the Potency was inconclusive: 24.1 µM [inhibitor, partial curve, poor fit].
In the case of `Cc1oncc1C(=O)Nc1ccc(C(F)(F)F)cc1`, the Potency is reported as “inactive”.
With `COc1cc(N)c(Cl)cc1C(=O)NC1CCN(CCCOc2ccc(F)cc2)CC1OC` (stereo unspecified) the Potency was inconclusive: 17.1 µM [inhibitor, partial curve, poor fit].
For `CC[C@H](C)C(=O)O[C@H]1C[C@@H](C)C=C2C=C[C@H](C)[C@H](CC[C@@H]3C[C@@H](O)CC(=O)O3)[C@H]21`, the Potency was inconclusive: 2.41 µM [inhibitor, full curve].
With `Cc1ccc(NC(=O)c2ccc(CN3CCN(C)CC3)cc2)cc1Nc1nccc(-c2cccnc2)n1` the Potency was inconclusive: 42.9 µM [inhibitor, single point].
With `CCN(CC)CCNC(=O)c1c(C)[nH]c(/C=C2\C(=O)Nc3ccc(F)cc32)c1C` the Potency was active: 17.1 µM.
In the case of `CN(C)[C@@H](CCOc1cccc2ccccc12)c1ccccc1`, the Potency is reported as inconclusive: 17.1 µM [inhibitor, partial curve].
With `CNCCCC12CCC(c3ccccc31)c1ccccc12` the Potency was “inactive”.
